Data taken from ChEMBL document CHEMBL3988442, “University of Dundee, Small-Polar-MMV Screening Library” (2021).

The filed quantity is “Percent Effect” (%). The controls that fix the scale are not given in the record; negative values are as filed. This is an unselected part of the compounds tested. A dash means the value is not listed here; it may have been measured.

A: 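Assay of Toxoplasma gondii numbers, read through their beta-galactosidase reporter with a colour substrate. Tested at 10 µM. Higher reads as fewer parasites (inferred from which compounds were picked for retests). Size under these conditions: about 67,000 compounds, about 260 of them at 50% or above in at least one test.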
B: 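Whole-parasite assay of Trypanosoma brucei over 72 hours; the read-out is not stated. Concentration: 30 µM. Higher reads as stronger inhibition (inferred: compounds with an IC50 in retests scored well above the rest). Values scatter widely below zero; nearly all retest evidence comes from the higher of the two concentrations used. Of about 64,000 compounds tested this way, about 940 (1.5%) reached 50% or more in at least one test.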

| compound | A | B |
|---|---|---|
| `CN(C)c1ccc(C(=O)NCc2csc(Br)c2)cn1` | 3.105% | - |
| `Cc1cc(NC(=O)NCCc2cccnc2)n(C)n1` | 5.096% | -14.32% |
| `Cc1nnc(C2Cc3ccccc3CN2Cc2ncc(Cl)n2C)o1` (stereo not drawn) | 2.999% | -25.41% |
| `CC(O)CNc1nc(-c2cccnc2)nc2c1CCC2` (stereo not drawn) | 2.116% | 5.601% |
| `Cc1nc(C2CCCN(C(=O)Cn3ccccc3=O)C2)no1` (stereo not drawn) | -20.89% | -30.06% |
| `CC(C#N)CNC(=O)Nc1ccc(Br)cc1` (stereo not drawn) | 1.294% | -40.28% |
| `C/C=C(/C)C(=O)NS(=O)(=O)c1ccc(C(F)(F)F)cc1` | 2.257% | -18.03% |
| `CC(=O)N1CCCC1CCc1ccnc(-c2cncnc2)c1` (stereo not drawn) | 10.23% | -14.71% |
| `CCc1cccc(OCCn2cccc(C#N)c2=O)c1` | 2.528% | -27.82% |
| `COc1cc(CN2CCn3c(CO)nnc3C2)ccc1OC(C)C.O=C(O)CC(O)(CC(=O)O)C(=O)O` | 20.65% | -35.06% |
| `Cc1nc(NCC2CC2)nc2c1COCC21CCN(C(=O)C(C)(C)C)C1` (stereo not drawn) | 1.57% | -148.6% |
| `O=C(NCC1CC1)N1CCN(Cc2ccc3c(c2)OCCO3)CC1` | -7.094% | 36.12% |
| `Cc1cnn(CCNCc2ccc(C#N)cc2F)c1` | 2.262% | 11.42% |
| `CC(C)c1nc(C(=O)N2CCCC(N)CC2)cs1` (stereo not drawn) | 4.824% | -34.79% |
| `Cc1ccc(CC(=O)N2CCCC(c3cc(C)[nH]n3)C2)cn1` (stereo not drawn) | 5.493% | 21.83% |
| `Cc1nc2ccccc2nc1CN1CCCC1Cn1cccn1` (stereo not drawn) | 0.9265% | 2.268% |
| `O=C(O)C(F)(F)F.OCCN1CCOC2(CCCN(c3ncc(F)cn3)C2)C1` (stereo not drawn) | -9.325% | -30.03% |
| `Cc1cc(C)c(Cn2cncn2)cc1CN1CC[C@H](CO)[C@@H](O)C1` | 22.12% | -83.48% |
| `CC(C)C(=O)Nc1cc(C(C)(C)C)nn1-c1ccccn1` | -3.105% | -0.7864% |
| `O=C(NCCN1CCOCC1)N1CCN(c2ccccc2)CC1` | -13.72% | -8.369% |
| `COc1ncccc1CN1CCC2(CC1)CC(OCC1CC1)CO2.O=C(O)C(F)(F)F` (stereo not drawn) | -4.336% | -49.98% |
| `O=C(NCc1nnc2n1CCC2)c1cn(-c2ccccc2)nn1` | 6.343% | -57.04% |
| `Cc1cccc(OCc2nnc(SCC3CCCN(C)C3)o2)c1` (stereo not drawn) | -1.123% | -11.54% |
| `COc1c(C)cnc(CN2CCOC(Cn3cncn3)C2)c1C` (stereo not drawn) | 2.991% | - |
| `COc1ccccc1N1CCCC(NC(=O)Nc2cccnc2)C1` (stereo not drawn) | -2.797% | -26.65% |
| `NC(=O)c1c(-c2ccc(Cl)cc2Cl)csc1NC(=O)CCCC(=O)O` | -2.403% | -24.84% |
| `CCCN1CCC(Cc2nc(CN3CCN(C)CC3)no2)CC1` | 5.065% | -13.43% |
| `COc1ccc(CN(Cc2cnn(C)c2)CC(C)C)cn1` | 1.85% | - |
| `CC(C)(C)CN1CCCC2(CCN(C(=O)c3ccc(O)nc3)C2)C1` (stereo not drawn) | -3.099% | 1.051% |
| `O=C(Cc1cccc(O)c1)NC1CCN(c2cccc(Cl)c2)C1` (stereo not drawn) | -23.22% | -18.9% |
| `CCC(NS(=O)(=O)c1ccc(C(=O)NC2CC2)cc1)c1cnn(C)c1` (stereo not drawn) | 0.2378% | -13.04% |
| `[H][C@@]12CN(CCOC)C[C@]1([H])[C@H](OC)CCN2Cc1ccc(C)o1` | 14.97% | -6.901% |
| `CCOCC(=O)NCCn1ccc(-c2ccccn2)n1` | -4.023% | 7.328% |
| `CN(Cc1ccncc1)C(=O)[C@H]1CSCN1C(=O)OC(C)(C)C` | 1.64% | - |
| `Cn1cnnc1C1CCCN(C(=O)c2cc(C3CC3)on2)C1` (stereo not drawn) | 11.84% | -19.63% |
| `O=C(Nc1cn[nH]c1)c1ccncc1` | -7.341% | 1.263% |
| `O=C(Cc1ccc(F)cc1)NCCNc1cc(N2CCCC2)cnn1` | 15.18% | -29.02% |
| `N#CCCN(c1ccc(F)cc1)S(=O)(=O)CC1CCCCO1` (stereo not drawn) | 16.25% | -81.11% |
| `c1cncc(-c2cccc(-c3ccn(CCN4CCCCC4)n3)c2)c1` | 0.4058% | 12.01% |
| `CN1CC(=O)N(c2ccccc2)CC12CCN(Cc1cccnc1)C2.O=C(O)C(F)(F)F.O=C(O)C(F)(F)F.O=C(O)C(F)(F)F` (stereo not drawn) | 0.4027% | -32.65% |
| `Cc1ccccc1C(=O)NCc1ccnc(N(C)C)c1` | -7.844% | -12.31% |
| `CNS(=O)(=O)Cc1cccc(CNCc2ccsc2)c1` | -1.768% | -26.12% |
| `CN(Cc1cc2c(cc1OC(F)F)OCO2)Cc1nccn1C` | 1.116% | 3.819% |
| `CCn1nc(C)c(CN(C)S(=O)(=O)c2cnn(C)c2)c1C` | 5.95% | -3.139% |
| `[H][C@@]12CCN(S(=O)(=O)C3CC3)[C@]1([H])CC[C@H](c1nc(C)no1)O2` | 19.65% | -47.75% |
| `Cc1cccnc1CN1CCC(c2nnc(Cn3cccn3)n2C)CC1` | -5.292% | -39.42% |
| `COCCOc1ncccc1C(=O)Nc1c(C)cnn1CC1CC1` | 12.68% | -44.95% |
| `CCc1nc(CN2CCCN(C(=O)c3ccnc(C)n3)CC2)cs1` | -8.603% | - |
| `Cc1nc(N2CCN(C(=O)c3cccs3)CC2)cc(-n2cccc2)n1` | -1.793% | -1.011% |
| `CNC(=O)c1ccc(S(=O)(=O)NCc2cccnc2N(C)C)cc1` | 6.778% | - |
| `CN(Cc1cccnc1)C(CO)c1cccc(Br)c1` (stereo not drawn) | 1.684% | -13.95% |
| `CCc1[nH]c2c(CNC(=O)C3CCS(=O)(=O)CC3)cc(C)cc2c1C` | -17.56% | - |
| `COCC1CC2(CCN(Cc3cccc(C#N)c3)CC2)CN1C(C)C.O=C(O)C(F)(F)F.O=C(O)C(F)(F)F` (stereo not drawn) | 4.221% | -12.65% |
| `CC(C)c1noc(CNc2ccc(OC(F)F)cc2OC(F)F)n1` | 26.15% | -17.48% |
| `Cc1nc(N2CCOCC2)nc(C)c1NS(=O)(=O)c1ccccc1` | -3.732% | 12.12% |
| `COCC(=O)N1CCC(c2c(C(=O)N(C)C)sc3ncccc23)C1` (stereo not drawn) | -0.1233% | -4.928% |
| `CNc1cc(C2CCCN2S(=O)(=O)c2cccc(F)c2)ccn1` (stereo not drawn) | 28.14% | -44.33% |
| `CC(C)(O)CN1CCN(C(=O)COC2CCCCC2)CC1` | -6.684% | -145.8% |
| `CCN(Cc1cccc(F)c1)S(=O)(=O)N1CCOCC1` | 6.846% | -22.89% |
| `CC(C)N(C)Cc1n[nH]c2c1CCN(C(=O)c1cc[nH]n1)C2` | 1.636% | -34.63% |
| `Cc1ccc(CN(Cc2ccccn2)C(=O)CCC2CCCN(C)C2)s1` (stereo not drawn) | -21.32% | -72.11% |
| `CC(C(=O)NCc1ccnc(Oc2ccc(F)cc2)c1)n1cncn1` (stereo not drawn) | -3.578% | -3.188% |
| `CNc1ncc(C(=O)N2CCC(c3ccccc3C(=O)O)C2)cn1` (stereo not drawn) | -30.88% | - |
| `Cc1cccc(N(C)S(=O)(=O)c2cc(C(=O)O)cs2)c1C` | -11.85% | 4.403% |
| `Cc1ccc(C)c(C(=O)Nc2ccc(OC3CCN(C)CC3)cc2)c1` | 22.47% | -7.163% |
| `COc1ccccc1NCC(=O)NCc1scnc1C` | -4.425% | -18.47% |
| `FC(F)(F)Cn1ccnc1CN1CCCC1c1noc(C2CC2)n1` (stereo not drawn) | 2.591% | -7.871% |
| `Cc1ncsc1CCN(C)C1CCN(c2ncnc3[nH]cnc23)CC1` | 0.8506% | - |
| `COC(=O)c1ccc(N2CCN(CCN3CCOCC3)C(C)C2)cc1` (stereo not drawn) | -0.8161% | 44.24% |
| `O=C(CCOc1ccccc1F)NC1CCCN(c2ccccn2)C1` (stereo not drawn) | -15.76% | -18.58% |
| `[H][C@@]12COC[C@]1(c1nc(C)no1)CN(S(=O)(=O)C1CC1)C2` | 6.754% | 0.4645% |
| `CCc1ccsc1C(=O)NC(C#N)CC` (stereo not drawn) | 0.5942% | -2.254% |
| `COc1ccc(NC(=O)N2CCC(c3noc(C)n3)CC2)cc1C` | 6.213% | -16.77% |
| `O=C(O)C(F)(F)F.c1cnc(N2CC3(CCN(C4CCOCC4)CC3)c3ccccc32)nc1` | 1.33% | -60.71% |
| `[H][C@@]12CCN(Cc3cccs3)C[C@@]1([H])O[C@@H](c1ccncn1)C2` | -2.439% | -23.93% |
| `COc1cc(Cl)c(NCc2c(C)noc2C)cc1OC` | 1.775% | -22.42% |
| `CCSc1cccc(NCc2cccnc2)c1` | 1.606% | -44.96% |
| `CCOCc1cccc(S(=O)(=O)Nc2ncc(C)s2)c1` | 16.57% | -21.79% |
| `COc1ccc([C@@H]2CN(Cc3cccnc3N)C[C@H]2NC(C)=O)cc1` | -12.57% | -10.31% |
| `COCCN(CC(C)C)c1cc(C)ncn1` | 0.885% | -10.25% |
| `CC(C)(C)c1ccc(-c2n[nH]c3c2CN(CC2CCOC2)CC3)cc1` (stereo not drawn) | -10.28% | -32.27% |
| `COc1cc(Cl)ccc1CNC(=O)N1CCC(n2cncn2)CC1` | 1.732% | -9.098% |
| `N#Cc1cccc(CNc2ccc(F)cc2OCCO)c1` | -9.779% | 7.286% |
| `COc1ccc(F)cc1C(C(=O)O)N1CCSCC1` (stereo not drawn) | 0.9038% | 4.918% |

The first 6 entries again:

compound,A,B
CN(C)c1ccc(C(=O)NCc2csc(Br)c2)cn1,3.105%,-
Cc1cc(NC(=O)NCCc2cccnc2)n(C)n1,5.096%,-14.32%
Cc1nnc(C2Cc3ccccc3CN2Cc2ncc(Cl)n2C)o1 (stereo not drawn),2.999%,-25.41%
CC(O)CNc1nc(-c2cccnc2)nc2c1CCC2 (stereo not drawn),2.116%,5.601%
Cc1nc(C2CCCN(C(=O)Cn3ccccc3=O)C2)no1 (stereo not drawn),-20.89%,-30.06%
CC(C#N)CNC(=O)Nc1ccc(Br)cc1 (stereo not drawn),1.294%,-40.28%